No constants are given. Whether binding was seen depends on the method and setting. Binding seen in cells or lysates may run through a third protein. Binding calls can cover weak binding; strength is not graded here.
Key:
[1] = molecular target: T1, VDAC3-mCitrine (FLIM-FRET) (Arabidopsis thaliana) (UniProt Q9SMX3); assay: FRET or BRET; FLIM-FRET; mCitrine donor and mCherry acceptor fusions constitutively expressed in plant cell culture; enolase-mCitrine with free mCherry as negative control
T1 sequence: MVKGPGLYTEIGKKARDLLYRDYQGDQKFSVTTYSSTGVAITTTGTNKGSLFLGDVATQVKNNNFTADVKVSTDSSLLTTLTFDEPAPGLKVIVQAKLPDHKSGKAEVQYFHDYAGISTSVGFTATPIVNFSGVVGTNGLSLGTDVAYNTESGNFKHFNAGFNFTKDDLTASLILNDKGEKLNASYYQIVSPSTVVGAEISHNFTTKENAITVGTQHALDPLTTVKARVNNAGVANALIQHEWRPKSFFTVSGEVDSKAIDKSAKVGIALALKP

[2] = molecular target: T2, VDAC1-mCitrine (FLIM-FRET) (Arabidopsis thaliana) (UniProt Q9SRH5); assay: as above
T2 sequence: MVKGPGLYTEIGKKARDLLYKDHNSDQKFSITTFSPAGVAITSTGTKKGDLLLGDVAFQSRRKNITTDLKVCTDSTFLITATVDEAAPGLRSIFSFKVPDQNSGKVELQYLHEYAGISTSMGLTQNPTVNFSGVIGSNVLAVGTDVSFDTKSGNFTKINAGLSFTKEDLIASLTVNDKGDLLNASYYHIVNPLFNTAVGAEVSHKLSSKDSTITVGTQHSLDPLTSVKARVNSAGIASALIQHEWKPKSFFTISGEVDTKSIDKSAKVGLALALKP

[3] = molecular target: T3, VDAC3-NE (BiFC) (Arabidopsis thaliana) (UniProt Q9SMX3); assay: split reporter; BiFC with split-mCitrine (NE, CE); transient expression in Arabidopsis mesophyll protoplasts and agroinfiltrated Arabidopsis leaves; confocal microscopy
T3 sequence: T1 sequence

[4] = molecular target: T4, VDAC1-NE (BiFC) (Arabidopsis thaliana) (UniProt Q9SRH5); assay: as above
T4 sequence: T2 sequence

binding [1] | binding [2] | binding [3] | binding [4] | Substance
binds | binds |  |  | PYK4 fluorescent fusion (FLIM-FRET) (Arabidopsis thaliana) (enzyme)
 |  | binds | binds | PYK4-CE (BiFC) (Arabidopsis thaliana) (enzyme)

Source: paper PMC7481185
